In patent US20020103136A1, “Conjugates useful in the treatment of prostate cancer” (priority 1998, published 2002):
Part of at least one peptide drawing is inferred or uncertain, most often the ends.

Tests used:
[1] = system: LNCap prostate tumor cells; assay: In vitro cytotoxicity, Alamar Blue assay, LNCaP cell kill in 72 hrs; assay type: cell-based; conditions: Table 5, 3 days, acetate salt of conjugate unless otherwise indicated, read-out: LNCaP Cell Kill in 72 HRS EC5O
Procedure: (§1) The cytotoxicities of the vinca alkaloid derivatives, prepared as described in Example 1, and the cleaveable oligopeptide-vinca drug conjugates, prepared as described in Examples 2 and 2A, against a line of cells which is known to be killed by unmodified vinca drug was assessed with an Alamar Blue assay. Specifically, cell cultures of LNCap prostate tumor cells, Colo320DM cells (also designated C320), T24 bladder carcinoma cells or T47D breast carcinoma cells in 96 well plates was diluted with medium containing various concentrations of a given conjugate (final plate well volume of 200 μl). The cells were incubated for 3 days at 37° C., 20 μl of Alamar Blue is added to the assay well. The cells were further incubated and the assay plates were read on a EL-310 ELISA reader at the dual wavelengths of 570 and 600 nm at 4 and 7 hours after addition of Alamar Blue. Relative percentage viability at the various concentration of conjugate tested was then calculated versus control (no cytotoxic agent or conjugate) cultures. Unless otherwise indicated, the TFA salt of the cytotoxic agent and the acetate salt of the conjugate were tested.

[2] = system: Colo320DM cells (also designated C320); assay: In vitro cytotoxicity, Alamar Blue assay, Colo320DM cells; assay type: cell-based; conditions: Table 5, value in parentheses, acetate salt unless otherwise indicated, read-out: Cell Kill in 72 HRS EC5O, Colo320DM
Procedure: as §1

Work on `CC[C@]1(O)CC2CN(CCc3c([nH]c4ccccc34)[C@@](C(=O)OC)(c3cc4c(cc3OC)N(C)C3C45CCN4CC=C[C@](CC)(C45)[C@@H](O)[C@]3(O)C(=O)N[C@H](COC(=O)[C@H](CO)NC(=O)[C@H](CCC(N)=O)NC(=O)[C@@H](NC(=O)[C@H](CO)NC(=O)[C@H](CO)NC(=O)[C@@H]3C[C@@H](O)CN3C(C)=O)C3CCCCC3)Cc3ccccc3)C2)C1` (some centres unmarked) yielded an EC50 [1] of 1300 nM and an EC50 [2] of 2300 nM.
